PubChem BioAssay AID2551 (National Center for Advancing Translational Sciences (NCATS), 2010)
Screen size: about 310,000 compounds; about 17,000 (5.5%) were called active. Inconclusive results, whose numbers are uncertain, are shown with a selection of clear calls. Calls follow the shape of the dose curve; as a rule, active = well fitted inhibition curve with a large enough effect; inconclusive = small, poorly fitted or top-dose-only effect, or effect the other way; inactive = no such curve, though single readings can be large or run the other way. Where the call is inconclusive, the potency comes from a doubtful curve fit.

Protein sequences, listed by entry. Tags and fused reporters are not part of them. Lines headed by an entry give the natural chain unless they say otherwise; changes in a name come on top.
UniProt P51450: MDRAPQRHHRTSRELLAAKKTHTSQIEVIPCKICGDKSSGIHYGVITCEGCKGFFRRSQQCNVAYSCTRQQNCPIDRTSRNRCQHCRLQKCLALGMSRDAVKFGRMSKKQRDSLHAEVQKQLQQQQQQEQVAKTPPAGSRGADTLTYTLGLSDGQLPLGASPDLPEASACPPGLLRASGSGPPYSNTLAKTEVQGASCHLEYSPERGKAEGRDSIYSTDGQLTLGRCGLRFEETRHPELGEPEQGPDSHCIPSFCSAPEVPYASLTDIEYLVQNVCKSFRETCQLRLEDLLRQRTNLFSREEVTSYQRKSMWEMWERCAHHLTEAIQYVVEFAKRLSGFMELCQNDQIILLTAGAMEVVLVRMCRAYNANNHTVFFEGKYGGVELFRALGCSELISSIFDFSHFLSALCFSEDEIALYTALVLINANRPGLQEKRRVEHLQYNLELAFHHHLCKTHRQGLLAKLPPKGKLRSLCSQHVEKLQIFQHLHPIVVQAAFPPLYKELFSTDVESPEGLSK

molecular target: Nuclear receptor ROR-gamma (Mus musculus) (UniProt P51450); test: qHTS for inhibitors of ROR gamma transcriptional activity; conditions: Drosophila S2 Gal4-RORgamma UAS-luciferase reporter, 20 h; activity change, negative = inhibition: at 53.6 µM (top of the series); also: nearly all actives have a fitted effect of over 60% in size
Outline: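 Drosophila S2 cells stably expressing Gal4-DBD/mouse RORγ fusion under metallothionein promoter plus UAS-luciferase; compound 1 h, then 700 uM CuSO4 induction for 20 h at ambient temperature; inhibition read as reduced luminescence.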
% is scaled to controls: 0 for no effect and ±100 for the full control effect; potency is read from the fitted curve at half-maximal effect.

Compound | Potency | activity change, negative = inhibition
O=c1c(Cl)c(Cl)cnn1Cc1ccc(F)cc1 | inconclusive: 35.5 µM [inhibitor, single point] | 
CCCc1cc(C(N)=O)c(NC(=O)c2ccoc2C)s1 |  | inactive: 25.3%
CCOc1ccc(Nc2nc(N)c3ccccc3n2)cc1 | active: 7.08 µM | 
CCOC(=O)c1ccccc1NC(=O)COC(=O)CSC(C)C(=O)Nc1cc(C)on1 (stereo not given) |  | inactive: -15.2%
CC(C)NCC(O)Cn1c2c(c3ccccc31)CCc1c-2cnn1-c1ccccc1 (stereo not given) | inconclusive: 25.1 µM [inhibitor, single point] | 
CSc1cccc(NC(=S)N(CCN(C)C)C(C)c2ccncc2)c1 (stereo not given) | inconclusive: 35.5 µM [inhibitor, single point] | 
COC(=O)c1ccc(/C=N/OCC(=O)NC2CCCCCCC2)cc1 | inconclusive: 3.98 µM [activator, full curve] | 
COc1ccc(N2C(=O)CC(Sc3nnc(-c4ccccc4)o3)C2=O)cc1 (stereo not given) | active: 5.62 µM | 
Cc1ccc(Nc2c(F)c(F)c(F)c(F)c2C(=O)O)cc1 | inconclusive: 17.8 µM [activator, single point] | 
CCOC(=O)CNc1cccc(C(F)(F)F)c1 | inconclusive: 6.31 µM [inhibitor, single point] | 
O=C1OCCN1C(=O)[C@H]1[C@H](c2ccc([N+](=O)[O-])cc2)C(c2ccccc2)=NN1c1ccc(Br)cc1 |  | inactive: 20.7% [at 40.7 µM]
N#Cc1ccc(CS(=O)(=O)c2nnnn2-c2ccccc2)cc1 | inconclusive: 15.8 µM [inhibitor, single point] | 
O=C(N/N=C/c1ccc([N+](=O)[O-])o1)c1ccncc1 | inconclusive: 35.5 µM [inhibitor, single point] | 
CCOc1cc(/C=N/N=C2/NC(=O)C(CC(=O)O)S2)ccc1OCc1ccc(Cl)cc1Cl (stereo not given) |  | inactive: -22.5%
Cc1ccc(-c2n[nH]c(=S)n2/N=C/c2ccc(C)s2)cc1 | active: 3.16 µM | 
CC(=O)Nc1cccc(C(=O)NC2CCCc3c2cnn3-c2ccc(C(C)(C)C)cc2)c1 (stereo not given) | inconclusive: 14.1 µM [activator, single point] | 
COc1ccccc1CC(=O)Nc1cc(Cl)ccc1O | inconclusive: 12.6 µM [activator, single point] | 
Cc1c(Cl)cccc1NC(=O)CSc1nc2c(c(=O)[nH]1)CCCC2 | inconclusive: 31.6 µM [activator, single point] | 
Cc1cccc(NC(=O)CSc2cccc3cccnc23)c1C |  | inactive: -39.3%
C=C(C(=O)c1ccccc1)C(C)CC(=O)c1ccccc1 (stereo not given) | inconclusive: 14.1 µM [inhibitor, single point] | 

A different layout for some results above.
Compound	Potency	activity change, negative = inhibition
COC(=O)c1ccc(/C=N/OCC(=O)NC2CCCCCCC2)cc1	inconclusive: 3.98 µM [activator, full curve]	
COc1ccc(N2C(=O)CC(Sc3nnc(-c4ccccc4)o3)C2=O)cc1 (stereo not given)	active: 5.62 µM	
Cc1ccc(Nc2c(F)c(F)c(F)c(F)c2C(=O)O)cc1	inconclusive: 17.8 µM [activator, single point]	
CCOC(=O)CNc1cccc(C(F)(F)F)c1	inconclusive: 6.31 µM [inhibitor, single point]	
O=C1OCCN1C(=O)[C@H]1[C@H](c2ccc([N+](=O)[O-])cc2)C(c2ccccc2)=NN1c1ccc(Br)cc1		inactive: 20.7% [at 40.7 µM]
